Assay results as given in paper PMC11873285.
These are yes or no findings as the source states them, for the method shown. In cells and extracts the contact can be indirect. Some results given as binding are weak or reduced against the parent protein; the word gives no strength. For some assays here: Where a sequence is shown, tags or fusion partners need not be part of it.

Experiments:
[1] = molecular target: VC-HRAS (full-length human HRas proto-oncogene GTPase fused to the C-terminal half of Venus) (human) (UniProt P01112); experiment: split reporter; split Venus (pBiFC-VN173 / pBiFC-VC155, N-terminal-tagged); cotransfected MH7A cells (results) or HEK293T cells (methods); fixed with 4% paraformaldehyde, Venus fluorescence by confocal microscopy
[2] = molecular target: GFP-tagged HRAS (GFP–HRAS) (human) (UniProt P01112); experiment: co-IP; lysates of cells coexpressing GFP-HRAS and HA-tagged PLCη2 constructs (MH7A in results, HEK293T in methods); IP with anti-GFP overnight at 4 °C in 5 mM HEPES pH 7.5, 250 mM NaCl, 0.5% NP-40, 10% glycerol, 2 mM EDTA; protein A/G agarose; blot with anti-HA
[3] = molecular target: HRAS, endogenous in MH7A cells (active, GTP-bound HRAS) (human (endogenous in MH7A)) (UniProt P01112); experiment: pull-down; same RAS-GTP pull-down, read for the effect of PLCη2 overexpressed in the MH7A cells on endogenous HRAS; both in the cell extract

B1: VN-PLCη2 (full-length human PLCη2 fused to the N-terminal half of Venus) (protein, UniProt O75038-1 1-1416)
chain: MSGPWPSPDSRTKGTVAWLAEVLLWVGGSVVLSSEWQLGPLVERCMGAMQEGMQMVKLRGGSKGLVRFYYLDEHRSCIRWRPSRKNEKAKISIDSIQEVSEGRQSEVFQRYPDGSFDPNCCFSIYHGSHRESLDLVSTSSEVARTWVTGLRYLMAGISDEDSLARRQRTRDQWLKQTFDEADKNGDGSLSIGEVLQLLHKLNVNLPRQRVKQMFREADTDDHQGTLGFEEFCAFYKMMSTRRDLYLLMLTYSNHKDHLDAASLQRFLQVEQKMAGVTLESCQDIIEQFEPCPENKSKGLLGIDGFTNYTRSPAGDIFNPEHHHVHQDMTQPLSHYFITSSHNTYLVGDQLMSQSRVDMYAWVLQAGCRCVEVDCWDGPDGEPIVHHGYTLTSKILFKDVIETINKYAFIKNEYPVILSIENHCSVIQQKKMAQYLTDILGDKLDLSSVSSEDATTLPSPQMLKGKILVKGKKLPANISEDAEEGEVSDEDSADEIDDDCKLLNGDASTNRKRVENTAKRKLDSLIKESKIRDCEDPNNFSVSTLSPSGKLGRKSKAEEDVESGEDAGASRRNGRLVVGSFSRRKKKGSKLKKAASVEEGDEGQDSPGGQSRGATRQKKTMKLSRALSDLVKYTKSVATHDIEMEAASSWQVSSFSETKAHQILQQKPAQYLRFNQQQLSRIYPSSYRVDSSNYNPQPFWNAGCQMVALNYQSEGRMLQLNRAKFSANGGCGYVLKPGCMCQGVFNPNSEDPLPGQLKKQLVLRIISGQQLPKPRDSMLGDRGEIIDPFVEVEIIGLPVDCSREQTRVVDDNGFNPTWEETLVFMVHMPEIALVRFLVWDHDPIGRDFIGQRTLAFSSMMPGYRHVYLEGMEEASIFVHVAVSDISGKVKQALGLKGLFLRGPKPGSLDSHAAGRPPARPSVSQRILRRTASAPTKSQKPGRRGFPELVLGTRDTGSKGVADDVVPPGPGPAPEAPAQEGPGSGSPRDTRPLSTQRPLPPLCSLETIAEEPAPGPGPPPPAAVPTSSSQGRPPYPTGPGANVASPLEDTEEPRDSRPRPCNGEGAGGAYERAPGSQTDGRSQPRTLGHLPVIRRVKSEGQVPTEPLGGWRPLAAPFPAPAVYSDATGSDPLWQRLEPCGHRDSVSSSSSMSSSDTVIDLSLPSLGLGRSRENLAGAHMGRLPPRPHSASAARPDLPPVTKSKSNPNLRATGQRPPIPDELQPRSLAPRMAGLPFRPPWGCLSLVGVQDCPVAAKSKSLGDLTADDFAPSFEGGSRRLSHSLGLPGGTRRVSGPGVRRDTLTEQLRWLTVFQQAGDITSPTSLGPAGEGVAGGPGFVRRSSSRSHSRVRAIASRARQAQERQQRLQGLGRQGPPEEERGTPEGACSVGHEGSVDAPAPSKGALGPASAAAENLVLLRL
Q: For B1, which binding [1] is on record?
A: binds

B2: VN-PLCη2_C2 (C2 domain of human PLCη2 fused to the N-terminal half of Venus) (domain or fragment, UniProt O75038-1 741-872)
chain: QGVFNPNSEDPLPGQLKKQLVLRIISGQQLPKPRDSMLGDRGEIIDPFVEVEIIGLPVDCSREQTRVVDDNGFNPTWEETLVFMVHMPEIALVRFLVWDHDPIGRDFIGQRTLAFSSMMPGYRHVYLEGMEE
Q: How did the binding [1] turn out when B2 was run?
A: binds

B3: HA-tagged PLCη2 (HA–PLCη2) (protein, UniProt O75038-1 1-1416)
chain: B1 chain
Q: With B3 as the binder, how does the binding [2] read?
A: binds

B4: HA-tagged PLCη2_C2 (HA–PLCη2_C2) (domain or fragment, UniProt O75038-1 741-872)
chain: B2 chain
Q: B4 was tested. Which binding [2] did it give?
A: binds

B5: PLCη2 overexpressed in MH7A cells from a PLCη2 plasmid (protein, UniProt O75038 1-1416)
chain: B1 chain
Q: B5 was tested. Which binding [3] did it give?
A: binds
